Measured values taken from article PMC7852868.
Results are given in words; binding and its absence hold for the method and conditions named. In cells and extracts the contact can be indirect. Some results given as binding are weak or reduced against the parent protein; the word gives no strength.

Chains of the proteins cited; added tags and fusions are not shown. Lines headed by an entry give the natural chain unless they say otherwise; changes in a name come on top.
UniProt Q13283: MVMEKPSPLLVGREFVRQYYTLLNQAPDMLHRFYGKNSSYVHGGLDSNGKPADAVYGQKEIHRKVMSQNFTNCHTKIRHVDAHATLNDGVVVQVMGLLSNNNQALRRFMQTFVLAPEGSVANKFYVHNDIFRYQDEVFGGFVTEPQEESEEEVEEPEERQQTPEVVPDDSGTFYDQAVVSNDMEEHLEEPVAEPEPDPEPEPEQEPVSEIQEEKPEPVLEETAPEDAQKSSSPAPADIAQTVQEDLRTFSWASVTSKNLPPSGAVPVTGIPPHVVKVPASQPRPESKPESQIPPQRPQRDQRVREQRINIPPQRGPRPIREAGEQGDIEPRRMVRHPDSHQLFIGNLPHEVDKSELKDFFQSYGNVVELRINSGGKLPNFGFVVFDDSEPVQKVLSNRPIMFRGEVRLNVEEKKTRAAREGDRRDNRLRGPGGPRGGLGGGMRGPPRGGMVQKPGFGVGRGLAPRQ
UniProt P63104: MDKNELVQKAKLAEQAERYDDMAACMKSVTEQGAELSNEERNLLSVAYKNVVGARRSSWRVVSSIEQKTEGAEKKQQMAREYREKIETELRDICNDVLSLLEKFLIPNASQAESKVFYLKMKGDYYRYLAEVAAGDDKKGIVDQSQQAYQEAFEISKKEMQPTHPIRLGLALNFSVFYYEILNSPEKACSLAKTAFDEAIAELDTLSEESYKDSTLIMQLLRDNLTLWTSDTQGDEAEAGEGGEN
UniProt Q07812: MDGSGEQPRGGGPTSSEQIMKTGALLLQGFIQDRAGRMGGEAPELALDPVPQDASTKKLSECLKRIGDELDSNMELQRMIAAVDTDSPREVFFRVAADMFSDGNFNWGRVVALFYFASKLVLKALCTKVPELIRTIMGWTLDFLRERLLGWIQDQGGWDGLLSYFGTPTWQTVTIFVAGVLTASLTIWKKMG

How the values were obtained:
[1] = biological target: G3BP1 (Ras-GTPase-activating protein SH3 domain-binding protein) (human (endogenous in MGC80-3)) (UniProt Q13283); test: co-IP; endogenous proteins in MGC80-3 whole-cell lysate; IP with anti-G3BP1 or anti-YWHAZ antibody, protein G agarose, IgG as negative control; lysis buffer 50 mM Tris-HCl pH 7.5, 150 mM NaCl, 0.1% NP-40, 15 mM MgCl2; 4 °C
[2] = biological target: YWHAZ (human (endogenous in MGC80-3)) (UniProt P63104); test: as above
Flag-YWHAZ = Flag-YWHAZ (UniProt P63104); test: co-IP; 293T cells transfected with Flag-YWHAZ together with HA-G3BP1 constructs; immunoblot of whole-cell lysates and immunoprecipitates
[3] = biological target: YWHAZ (human (endogenous in MGC80-3)) (UniProt P63104); test: co-IP; MGC80-3 cells transfected with scramble or siG3BP1; IP with anti-YWHAZ antibody, anti-rabbit IgG as control; blot for Bax

YWHAZ (from UniProt P63104 1-245)
binding [1]: binds

G3BP1 (Ras-GTPase-activating protein SH3 domain-binding protein) (from UniProt Q13283 1-466)
binding [2]: binds

HA-tagged G3BP1 fragment, RRM and RGG domains (326-466 aa) (from UniProt Q13283 326-466) (domain or fragment)
binding (Flag-YWHAZ): binds

Bax (from UniProt Q07812 1-192)
binding [3]: binds
